Values from PubChem BioAssay AID1259254 (NCATS, 2017)
Assay: 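Genome-wide screen for genes that prevent DNA re-replication in cancer cells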 (primary screen). Cells: human HCT116 colorectal cancer cells. Reagents: single siRNA against human genes. Time to read-out: 3 days. Measurement: 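Imaged Hoechst DNA stain sorts each cell into a cycle phase by DNA amount; per plate, G2 fraction set to 0% for non-targeting and 100% for GMNN siRNA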. Reading the numbers: G2 robust z-score and G2 cells, % of GMNN control: higher = more G2 cells, more excess DNA replication; raw share of cells in G2: higher = larger share of cells with G2 DNA content. Rule for the call: 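Active siRNAs have a G2 robust z of 5 or more median absolute deviations over the median, which in these data means about 38% or higher of GMNN control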.
Here is one part, drawn at random, of about 59,000 deposited reagents. Over the whole deposit, about 1,550 (2.6%) were called active. 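G2 share is only a proxy for re-replication; each gene was hit by three separate siRNAs, and active genes were retested.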 Raw values vary from plate to plate and are shown uncorrected. The numbers tell different reagents against one gene apart. Not stated in the record: the amount of reagent.

no.	Gene	reagent	G2 robust z-score	G2 cells, % of GMNN control	raw share of cells in G2 (%)	outcome
1	ZNF433	1	-0.322	0.702	3.41	inactive
2	ZNF433	2	0.242	4.67	4.7	inactive
3	ZNF433	3	0.888	9.21	6.76	inactive
4	KL	1	-0.806	-2.7	4.46	inactive
5	KL	2	-0.391	0.219	4.34	inactive
6	KL	3	-0.765	-2.42	3.68	inactive
7	CD247	1	-0.232	1.34	5.44	inactive
8	CD247	2	-1.17	-5.24	2.29	inactive
9	CD247	3	0.205	4.41	6.6	inactive
10	SPATA41	1	4.96	37.8	16.7	inactive
11	SPATA41	2	1.04	10.3	7.89	inactive
12	SPATA41	3	0.39	5.71	7.08	inactive
13	PRPF38B	1	-0.229	1.36	5.05	inactive
14	PRPF38B	2	-0.266	1.1	4.59	inactive
15	PRPF38B	3	-0.874	-3.18	2.12	inactive
16	RASSF10	1	-0.528	-0.748	2.93	inactive
17	RASSF10	2	0.0478	3.3	4.9	inactive
18	RASSF10	3	-0.275	1.03	3.64	inactive
19	ZDHHC1	1	-0.378	0.31	4.09	inactive
20	ZDHHC1	2	0.138	3.94	5.5	inactive
21	ZDHHC1	3	2.24	18.7	14.7	inactive
22	CHRNA4	1	3.22	25.6	14.6	inactive
23	CHRNA4	2	1.24	11.7	8.74	inactive
24	CHRNA4	3	0.306	5.12	6.37	inactive
25	NR4A2	1	1.62	14.3	10.5	inactive
26	NR4A2	2	-0.522	-0.702	4.31	inactive
27	NR4A2	3	-0.116	2.15	4.67	inactive
28	MRPL18	1	-0.731	-2.17	2.57	inactive
29	MRPL18	2	6.71	50.2	23	active
30	MRPL18	3	0.449	6.13	6.87	inactive
31	ARRB2	1	-1.36	-6.59	1.54	inactive
32	ARRB2	2	-0.641	-1.54	4.19	inactive
33	ARRB2	3	3.5	27.6	14.9	inactive
34	DDX53	1	-0.786	-2.56	4.73	inactive
35	DDX53	2	-0.00522	2.93	5.77	inactive
36	DDX53	3	-0.241	1.28	5.24	inactive
37	LINC02167	1	-0.803	-2.68	2.45	inactive
38	LINC02167	2	2.8	22.7	14.2	inactive
39	LINC02167	3	0.878	9.14	7.14	inactive
40	HOXB8	1	2.39	19.8	13.2	inactive
41	HOXB8	2	0.859	9.01	7.51	inactive
42	HOXB8	3	-0.211	1.48	5.58	inactive
43	LHX1	1	-0.883	-3.24	4.19	inactive
44	LHX1	2	0.824	8.77	8.75	inactive
45	LHX1	3	0.91	9.37	6.29	inactive
46	SCN1B	1	-0.437	-0.111	4.33	inactive
47	SCN1B	2	0.00647	3.01	6.39	inactive
48	SCN1B	3	1.1	10.7	8.41	inactive

A portion of the results above:
no.	Gene	reagent	G2 robust z-score	G2 cells, % of GMNN control	raw share of cells in G2 (%)	outcome
34	DDX53	1	-0.786	-2.56	4.73	inactive
35	DDX53	2	-0.00522	2.93	5.77	inactive
36	DDX53	3	-0.241	1.28	5.24	inactive
